The list shows a part of the results.

For the test, the target named is T1, OsSMF1 (Oryza sativa, UniProt Q6ZLB0 1-436).
T1 sequence: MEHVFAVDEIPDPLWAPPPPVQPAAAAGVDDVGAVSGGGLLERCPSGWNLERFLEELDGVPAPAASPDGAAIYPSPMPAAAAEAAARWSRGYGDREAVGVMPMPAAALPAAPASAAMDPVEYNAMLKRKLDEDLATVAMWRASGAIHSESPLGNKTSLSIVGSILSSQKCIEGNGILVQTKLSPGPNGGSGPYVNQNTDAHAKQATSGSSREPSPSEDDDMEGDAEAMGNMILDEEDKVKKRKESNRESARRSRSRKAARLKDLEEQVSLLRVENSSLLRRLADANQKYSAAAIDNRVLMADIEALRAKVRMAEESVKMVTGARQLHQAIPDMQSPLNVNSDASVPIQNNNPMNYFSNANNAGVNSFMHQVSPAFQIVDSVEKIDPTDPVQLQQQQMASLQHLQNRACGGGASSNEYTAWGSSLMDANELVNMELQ
As to the kind of experiment: protein-binding microarray (RPBM); PBS, 2% BSA, 51.3 ng/ul salmon testes DNA, 50 uM zinc acetate, 200 nM TF, 25 C, 1 h; high values mean tight binding. As to conditions: protein: recombinant; tags: N-terminal polyhistidine and DsRed monomer fusion (pET32a); chain copies: 2; label: CyDye5-dUTP incorporated in the synthesized complementary strand; 3' TTTTT single-stranded linker to array surface; dsDNA, one strand shown. A digest of the protocol:
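Polyhistidine-tagged DsRed fusions of transcription factors, joined at the N-terminus, were expressed in E. coli BL21-CodonPlus and isolated on Ni–NTA. They were incubated at 200 nM for 1 h at 25 °C on a custom Agilent array, double-stranded and BSA-blocked, in PBS with 2% BSA, salmon testes DNA and 50 µM zinc acetate. The binding signal is per-feature fluorescence intensity (arbitrary units) read on an Axon 4000B scanner after washing.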
Take “AATGGATGCGACGCGTGTTAGTCGAGTAGCCGAGTCCGACCGGAGTCACCTAGTGCAG”: the binding signal was 4160 fluorescence intensity (a.u.).
Consider “ACCAGCTAGTCCATGTTTCTGACCTGGATCTTGAATTCTGCGGAGTCACCTAGTGCAG”, for which the binding signal is 5180 fluorescence intensity (a.u.).
For “CAGAATTTACTGATCAGAAGAAACATCTAGTCATTTCATTCGGAGTCACCTAGTGCAG” the value was 3450 fluorescence intensity (a.u.).
For the sequence “CCATAAAGTTCTCACTCTCAACTTACAAACATCTGGTTATCGGAGTCACCTAGTGCAG”, the binding signal was 22400 fluorescence intensity (a.u.).
For the sequence “AAAGCTCCGCGGATCGGTGAATCCGCGGGTGGTGGCGGCGCGGAGTCACCTAGTGCAG”, the binding signal is 3220 fluorescence intensity (a.u.).
Consider “TCGTGTCGAACCCCGCGGCGAGCGGGTTCGACGACGCCCTCGGAGTCACCTAGTGCAG”, for which the binding signal is 3220 fluorescence intensity (a.u.).
For the sequence “TGTTTAAACTGTTGTTATGGTTAGTTCGGTCTATAACCGACGGAGTCACCTAGTGCAG”, the binding signal is 3550 fluorescence intensity (a.u.).
“TTCCATGACACATCCTCCTGATCTTGGCATATTTGCCCTCCGGAGTCACCTAGTGCAG”: the binding signal is 4680 fluorescence intensity (a.u.).
Take “ATATAAGTAATGCTAGATGAGTCAATGACATGTGGATCAGCGGAGTCACCTAGTGCAG”: the binding signal is 5110 fluorescence intensity (a.u.).
Take “TATCAGGCGTGCATCCAAAGCAGGTGCAGAGACTATCTCACGGAGTCACCTAGTGCAG”: the binding signal is 9780 fluorescence intensity (a.u.).
Consider “TAGCTGGTGACGGAAGATATTTCCTACTTTATATCTCTTTCGGAGTCACCTAGTGCAG”, for which the binding signal is 3260 fluorescence intensity (a.u.).
Take “CCCGATGACCACCCTACGCTAGCAATCTTCCTCTTGTCGTCGGAGTCACCTAGTGCAG”: the binding signal was 3690 fluorescence intensity (a.u.).
Turning to “CGGGCAGGTTGTCGCCGTCATCGTGTGGTGCGATTGCAATCGGAGTCACCTAGTGCAG”, the binding signal was 3250 fluorescence intensity (a.u.).
Turning to “TATATGTGTGTGTGACTGCAATCAGATTTATTGTATTTATCGGAGTCACCTAGTGCAG”, the binding signal was 3360 fluorescence intensity (a.u.).
On to “ACTATAATGCTTACTACAGATGATGTGTCCATCTATTGTACGGAGTCACCTAGTGCAG”, for which the binding signal was 8370 fluorescence intensity (a.u.).
For the sequence “TGTCGGTGCCTCTGCTGCCACCATCACTGCAGTCAGGTACCGGAGTCACCTAGTGCAG”, the binding signal was 3180 fluorescence intensity (a.u.).
On to “AAGTCACCGAAGCTGAGTCCGCCTGAACCCGACCCCGTGTCGGAGTCACCTAGTGCAG”, for which the binding signal is 3360 fluorescence intensity (a.u.).
Consider “TGCATAAATAATTGTGTCATATTACTCCTCAATAGTAGTACGGAGTCACCTAGTGCAG”, for which the binding signal was 3490 fluorescence intensity (a.u.).
As for “ATCCATATCTCGGTCGCTACACGCGTTACATCCGTACGCTCGGAGTCACCTAGTGCAG”, the binding signal was 3200 fluorescence intensity (a.u.).
Take “CAGAATATTTTGTCAGTCACTCTTGATCACTCTAGCAACACGGAGTCACCTAGTGCAG”: the binding signal is 3980 fluorescence intensity (a.u.).
Take “ACGGCACCTCATAGATTATTCCGTCCGTTCCAACAACCTCCGGAGTCACCTAGTGCAG”: the binding signal was 3890 fluorescence intensity (a.u.).
Consider “GTAATAATAGATTATATTCAATTAATTAATTATTTATTATCGGAGTCACCTAGTGCAG”, for which the binding signal was 17400 fluorescence intensity (a.u.).
In the case of “CCCCTAGCGAATTCTGGATTAGCTTGGCGTGACGCCGGTGCGGAGTCACCTAGTGCAG”, the binding signal was 3240 fluorescence intensity (a.u.).
For the sequence “GCTTCCTCCCTACGAGCACGACCCACCCACGTCATCATCCCGGAGTCACCTAGTGCAG”, the binding signal was 29000 fluorescence intensity (a.u.).
With “CCATCTCCGCTCCGCTCCTCTCCTCTCCTCTCCGTGCTACCGGAGTCACCTAGTGCAG”, the binding signal was 3160 fluorescence intensity (a.u.).
For the sequence “GCTAAGTACTCCGTTGTCACCGCGTCCTTGGTTTTGCTAACGGAGTCACCTAGTGCAG”, the binding signal is 3300 fluorescence intensity (a.u.).
For “CACACGAGCCACGCATCATCCAGCAACCAACCAACCACTACGGAGTCACCTAGTGCAG” the value was 4290 fluorescence intensity (a.u.); for “CTTTTGGTCTCGCGCCCACTGACACGTGGGTCCCACGCTCCGGAGTCACCTAGTGCAG”, 6100 fluorescence intensity (a.u.).
For “CCTATCACGTGGCAGCCTGCCAGCCTTAACACGTAGCGGTCGGAGTCACCTAGTGCAG” the value was 7800 fluorescence intensity (a.u.); for “TAAAATGGTTTGACATGTTATAATCACGTTAATTGCATGGCGGAGTCACCTAGTGCAG”, 3170 fluorescence intensity (a.u.); for “GTACAGGTTGGAGCTAGCTATACAGACATACAACAGTCTTCGGAGTCACCTAGTGCAG”, 3360 fluorescence intensity (a.u.).
Take “GAACATCATATCACCTATTATGTTTACTGTACATCCACATCGGAGTCACCTAGTGCAG”: the binding signal is 3260 fluorescence intensity (a.u.).
With “AACCTCTGCACCTCCTCCAACCAAACTAGCAGCTCCTGATCGGAGTCACCTAGTGCAG”, the binding signal was 3290 fluorescence intensity (a.u.).
As for “ATAAATTTAAGTGCATTTTGGTTGACGTACTGACGTGTTTCGGAGTCACCTAGTGCAG”, the binding signal is 7800 fluorescence intensity (a.u.).
Turning to “TGCCGTTAGTTGGGGTAAATTAGAGATGACAATGGGCCCCCGGAGTCACCTAGTGCAG”, the binding signal was 3420 fluorescence intensity (a.u.).
Regarding “AATGGATCTAGACTATATCTATCTAGATTCATTAGTATCACGGAGTCACCTAGTGCAG”, the binding signal is 45400 fluorescence intensity (a.u.).
In the case of “CTCGTCTCCCCACTGGCCGCCGCCACGTCTCGTCTCCTCCCGGAGTCACCTAGTGCAG”, the binding signal was 4270 fluorescence intensity (a.u.).
As for “CTAGTCCATCGATCGAGGTTACACGCATGACGTACATAATCGGAGTCACCTAGTGCAG”, the figure is 3510 fluorescence intensity (a.u.); as for “CCTACGGCATCAACTAGCCTCGCTCCCATGTCATCTGCTGCGGAGTCACCTAGTGCAG”, 5080 fluorescence intensity (a.u.).
As for “GGCGAGCTGTGGCGGTGGCCGGATGGCTGCTGTGGTGGCACGGAGTCACCTAGTGCAG”, the figure is 3350 fluorescence intensity (a.u.); as for “AAAGATGGATCGGACCGCTTGGCGCGCCCGCCTAACGTGGCGGAGTCACCTAGTGCAG”, 3360 fluorescence intensity (a.u.).
Take “CGTCAACTCCGTGCCGGAGAACAACACCGTGCGCGTCATCCGGAGTCACCTAGTGCAG”: the binding signal was 5170 fluorescence intensity (a.u.).
For “TGCGAATTAAGCCGCACTTGACCACGACGCCACGACCACTCGGAGTCACCTAGTGCAG” the value was 3560 fluorescence intensity (a.u.).
With “AAGCCGCCTCCGCTCCTCCGCGTGCGCCGCCGCCGACTCGCGGAGTCACCTAGTGCAG”, the binding signal was 3190 fluorescence intensity (a.u.).
As to “GATCTAATCCATGGCCAGATAACCGATGTCATCACCAAATCGGAGTCACCTAGTGCAG”, the binding signal is 3920 fluorescence intensity (a.u.).
As for “TCTCACCGCCCGGCAAGCACGAACACGATGACATCGGATCCGGAGTCACCTAGTGCAG”, the binding signal was 4590 fluorescence intensity (a.u.).
“ACCTAAACGAGCCAACACGCACGCTCATCGCATCTTTGCGCGGAGTCACCTAGTGCAG”: the binding signal was 3810 fluorescence intensity (a.u.).
For the sequence “CGTCATACTGCTCGATCAGGTGGCCGGCTTACGTCATCGTCGGAGTCACCTAGTGCAG”, the binding signal is 6110 fluorescence intensity (a.u.).
For the sequence “GACGGACGCGTCGATGCGCGTGGCAGTAGCTGCGTGCGGGCGGAGTCACCTAGTGCAG”, the binding signal is 6090 fluorescence intensity (a.u.).
On to “GACATGACGAAACAACATTGTCACGTCACTTGTGTTTGGTCGGAGTCACCTAGTGCAG”, for which the binding signal was 8040 fluorescence intensity (a.u.).
For “CCTCTGATGCACATGCTGACATCTGTTGCTTCTAGACATGCGGAGTCACCTAGTGCAG” the value was 4530 fluorescence intensity (a.u.); for “TTGGTGTTAAATTTATAGTTATGTTATACACTGTCTTGAACGGAGTCACCTAGTGCAG”, 23800 fluorescence intensity (a.u.); for “CTCATGATCTCCACCACCCGCGCCACGCCGCCCGCCTCCTCGGAGTCACCTAGTGCAG”, 3290 fluorescence intensity (a.u.).
As for “CGGGACACACGTCTTACACATCAGCATTTGCTAAGCATACCGGAGTCACCTAGTGCAG”, the figure is 5180 fluorescence intensity (a.u.).

For the origin of these results see article PMC7819943, “Rice protein-binding microarrays: a tool to detect cis-acting elements near promoter regions in rice”.
